The list shows a part of the results. Small differences around the control level are noise.
Compound: CN[C@@H]1C[C@H]2O[C@@](C)([C@@H]1OC)n1c3ccccc3c3c4c(c5c6ccccc6n2c5c31)C(=O)NC4 [staurosporine]
Experiment: log2 fold change of pooled soluble protein (PISA), ligand vs vehicle (log2 ratio); higher = more thermally stabilized
Conditions: ligand concentration: 20 uM; assay format: PISA pool 52.9/55.5/58.6 C

The chains behind the UniProt entries cited, without tags or fusion partners. Where a name states a change or a piece, a line headed by the entry shows the natural chain unless it says otherwise.
UniProt P30115: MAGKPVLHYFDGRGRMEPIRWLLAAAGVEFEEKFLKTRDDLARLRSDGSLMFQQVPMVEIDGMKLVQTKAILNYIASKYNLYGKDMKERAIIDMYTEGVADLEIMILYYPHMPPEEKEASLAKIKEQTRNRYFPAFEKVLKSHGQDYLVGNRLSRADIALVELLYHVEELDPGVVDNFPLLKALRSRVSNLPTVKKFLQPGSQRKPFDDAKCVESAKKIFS
UniProt P31532: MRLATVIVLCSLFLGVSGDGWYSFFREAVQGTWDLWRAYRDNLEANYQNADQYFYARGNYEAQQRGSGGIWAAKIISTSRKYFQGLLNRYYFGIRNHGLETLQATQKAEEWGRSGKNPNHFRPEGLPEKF
UniProt P52503, whole entry: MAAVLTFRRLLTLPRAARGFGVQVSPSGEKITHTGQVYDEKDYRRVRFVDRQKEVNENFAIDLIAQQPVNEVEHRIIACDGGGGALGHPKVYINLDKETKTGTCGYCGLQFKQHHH
UniProt P55937: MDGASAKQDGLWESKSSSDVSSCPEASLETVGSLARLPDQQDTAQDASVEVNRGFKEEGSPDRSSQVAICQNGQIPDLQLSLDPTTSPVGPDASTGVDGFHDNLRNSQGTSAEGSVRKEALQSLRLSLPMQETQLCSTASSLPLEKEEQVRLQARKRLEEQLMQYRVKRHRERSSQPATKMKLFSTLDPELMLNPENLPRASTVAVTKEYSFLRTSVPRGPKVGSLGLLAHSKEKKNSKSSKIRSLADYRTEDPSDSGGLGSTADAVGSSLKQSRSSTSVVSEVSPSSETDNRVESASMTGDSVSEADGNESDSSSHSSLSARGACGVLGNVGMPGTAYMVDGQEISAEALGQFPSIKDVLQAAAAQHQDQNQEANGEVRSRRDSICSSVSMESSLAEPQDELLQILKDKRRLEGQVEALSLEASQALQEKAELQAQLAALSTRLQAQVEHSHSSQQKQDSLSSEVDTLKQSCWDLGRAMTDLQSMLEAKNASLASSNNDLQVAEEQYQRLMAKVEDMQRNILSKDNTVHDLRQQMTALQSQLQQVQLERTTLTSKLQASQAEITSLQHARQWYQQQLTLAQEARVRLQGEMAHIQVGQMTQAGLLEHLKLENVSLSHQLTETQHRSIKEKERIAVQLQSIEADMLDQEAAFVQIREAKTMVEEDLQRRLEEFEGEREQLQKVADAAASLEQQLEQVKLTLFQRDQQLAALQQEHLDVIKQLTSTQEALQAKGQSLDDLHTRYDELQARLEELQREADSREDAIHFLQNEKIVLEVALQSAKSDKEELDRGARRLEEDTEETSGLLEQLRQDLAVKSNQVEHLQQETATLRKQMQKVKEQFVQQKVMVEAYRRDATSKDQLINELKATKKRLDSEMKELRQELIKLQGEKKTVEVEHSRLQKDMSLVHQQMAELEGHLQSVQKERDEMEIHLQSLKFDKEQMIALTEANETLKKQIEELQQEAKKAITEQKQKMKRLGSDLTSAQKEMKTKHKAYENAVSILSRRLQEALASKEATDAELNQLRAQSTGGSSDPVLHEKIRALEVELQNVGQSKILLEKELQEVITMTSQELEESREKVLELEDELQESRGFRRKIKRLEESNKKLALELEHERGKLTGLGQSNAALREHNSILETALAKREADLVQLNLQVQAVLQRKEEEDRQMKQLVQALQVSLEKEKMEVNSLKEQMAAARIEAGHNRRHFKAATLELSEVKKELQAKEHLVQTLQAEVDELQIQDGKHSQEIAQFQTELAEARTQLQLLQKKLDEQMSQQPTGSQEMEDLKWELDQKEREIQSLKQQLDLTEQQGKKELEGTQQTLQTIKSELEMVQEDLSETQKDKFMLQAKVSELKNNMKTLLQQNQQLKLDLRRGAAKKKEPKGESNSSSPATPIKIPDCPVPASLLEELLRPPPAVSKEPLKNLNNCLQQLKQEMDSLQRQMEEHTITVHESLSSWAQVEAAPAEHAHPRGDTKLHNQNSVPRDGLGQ
UniProt P30999: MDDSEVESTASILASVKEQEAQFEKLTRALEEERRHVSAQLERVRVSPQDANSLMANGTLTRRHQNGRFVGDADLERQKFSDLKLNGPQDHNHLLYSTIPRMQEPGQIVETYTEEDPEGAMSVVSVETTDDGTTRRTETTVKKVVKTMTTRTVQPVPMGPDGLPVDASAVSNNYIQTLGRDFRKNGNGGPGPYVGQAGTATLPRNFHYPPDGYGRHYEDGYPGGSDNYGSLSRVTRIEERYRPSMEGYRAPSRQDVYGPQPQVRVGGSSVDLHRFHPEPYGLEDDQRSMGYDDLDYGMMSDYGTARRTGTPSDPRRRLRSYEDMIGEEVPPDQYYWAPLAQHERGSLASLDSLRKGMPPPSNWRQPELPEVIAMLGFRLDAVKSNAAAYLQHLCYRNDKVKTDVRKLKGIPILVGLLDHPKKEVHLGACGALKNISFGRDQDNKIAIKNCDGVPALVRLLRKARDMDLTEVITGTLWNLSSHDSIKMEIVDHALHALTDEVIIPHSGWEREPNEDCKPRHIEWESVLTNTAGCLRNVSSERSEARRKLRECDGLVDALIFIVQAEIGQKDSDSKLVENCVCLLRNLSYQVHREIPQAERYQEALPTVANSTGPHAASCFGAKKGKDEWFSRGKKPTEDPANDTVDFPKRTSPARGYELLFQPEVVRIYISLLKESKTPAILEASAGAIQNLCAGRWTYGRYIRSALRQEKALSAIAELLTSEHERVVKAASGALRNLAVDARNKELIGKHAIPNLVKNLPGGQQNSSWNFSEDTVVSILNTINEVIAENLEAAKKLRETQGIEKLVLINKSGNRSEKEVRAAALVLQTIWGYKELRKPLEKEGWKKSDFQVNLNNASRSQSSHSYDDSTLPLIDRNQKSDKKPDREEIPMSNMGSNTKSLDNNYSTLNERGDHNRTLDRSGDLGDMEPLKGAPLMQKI
UniProt P40936: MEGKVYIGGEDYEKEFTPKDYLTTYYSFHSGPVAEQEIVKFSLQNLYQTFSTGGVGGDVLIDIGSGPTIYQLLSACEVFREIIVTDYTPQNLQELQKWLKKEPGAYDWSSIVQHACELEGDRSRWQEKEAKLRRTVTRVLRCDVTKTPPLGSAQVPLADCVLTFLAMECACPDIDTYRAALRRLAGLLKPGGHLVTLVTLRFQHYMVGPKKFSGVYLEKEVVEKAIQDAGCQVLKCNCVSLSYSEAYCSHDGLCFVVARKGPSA
UniProt P30415: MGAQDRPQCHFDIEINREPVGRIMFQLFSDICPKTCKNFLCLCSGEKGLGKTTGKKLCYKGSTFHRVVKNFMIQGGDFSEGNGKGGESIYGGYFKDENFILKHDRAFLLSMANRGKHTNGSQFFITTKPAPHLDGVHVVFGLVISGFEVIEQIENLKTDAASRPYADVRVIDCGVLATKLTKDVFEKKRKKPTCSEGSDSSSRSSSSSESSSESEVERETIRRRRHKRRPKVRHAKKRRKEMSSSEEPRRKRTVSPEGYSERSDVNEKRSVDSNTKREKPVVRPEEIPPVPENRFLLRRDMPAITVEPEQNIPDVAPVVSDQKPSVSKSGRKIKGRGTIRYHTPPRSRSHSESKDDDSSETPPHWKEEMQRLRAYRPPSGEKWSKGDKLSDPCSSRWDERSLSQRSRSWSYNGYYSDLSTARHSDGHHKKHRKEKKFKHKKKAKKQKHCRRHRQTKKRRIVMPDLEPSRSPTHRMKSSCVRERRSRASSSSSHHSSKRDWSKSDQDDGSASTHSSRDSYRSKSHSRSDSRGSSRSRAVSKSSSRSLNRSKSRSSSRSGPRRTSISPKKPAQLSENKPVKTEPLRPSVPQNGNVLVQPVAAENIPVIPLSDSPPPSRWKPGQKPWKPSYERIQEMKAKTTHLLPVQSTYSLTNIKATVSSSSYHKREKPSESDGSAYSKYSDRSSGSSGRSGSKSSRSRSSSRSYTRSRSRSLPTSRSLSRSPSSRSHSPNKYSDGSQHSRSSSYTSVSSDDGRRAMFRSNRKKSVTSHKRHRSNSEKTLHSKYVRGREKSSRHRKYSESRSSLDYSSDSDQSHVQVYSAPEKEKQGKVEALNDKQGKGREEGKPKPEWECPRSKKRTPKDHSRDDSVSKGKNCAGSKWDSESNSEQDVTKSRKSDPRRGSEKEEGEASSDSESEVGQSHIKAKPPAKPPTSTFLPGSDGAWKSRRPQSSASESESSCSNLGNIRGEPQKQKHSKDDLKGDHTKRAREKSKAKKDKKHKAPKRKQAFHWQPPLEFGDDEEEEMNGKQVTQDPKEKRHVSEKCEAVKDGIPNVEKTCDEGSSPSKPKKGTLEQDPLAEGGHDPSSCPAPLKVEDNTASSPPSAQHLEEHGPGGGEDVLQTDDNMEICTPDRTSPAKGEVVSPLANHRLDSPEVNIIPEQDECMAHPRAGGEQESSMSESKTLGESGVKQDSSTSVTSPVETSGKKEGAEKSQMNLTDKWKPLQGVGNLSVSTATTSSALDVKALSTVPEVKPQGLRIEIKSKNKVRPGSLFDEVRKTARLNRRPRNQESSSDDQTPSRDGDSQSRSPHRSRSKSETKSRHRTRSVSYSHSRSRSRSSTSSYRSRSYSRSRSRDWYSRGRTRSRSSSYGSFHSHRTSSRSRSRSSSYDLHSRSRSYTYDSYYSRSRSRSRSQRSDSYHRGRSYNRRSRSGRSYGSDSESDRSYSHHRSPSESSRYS
UniProt P50544: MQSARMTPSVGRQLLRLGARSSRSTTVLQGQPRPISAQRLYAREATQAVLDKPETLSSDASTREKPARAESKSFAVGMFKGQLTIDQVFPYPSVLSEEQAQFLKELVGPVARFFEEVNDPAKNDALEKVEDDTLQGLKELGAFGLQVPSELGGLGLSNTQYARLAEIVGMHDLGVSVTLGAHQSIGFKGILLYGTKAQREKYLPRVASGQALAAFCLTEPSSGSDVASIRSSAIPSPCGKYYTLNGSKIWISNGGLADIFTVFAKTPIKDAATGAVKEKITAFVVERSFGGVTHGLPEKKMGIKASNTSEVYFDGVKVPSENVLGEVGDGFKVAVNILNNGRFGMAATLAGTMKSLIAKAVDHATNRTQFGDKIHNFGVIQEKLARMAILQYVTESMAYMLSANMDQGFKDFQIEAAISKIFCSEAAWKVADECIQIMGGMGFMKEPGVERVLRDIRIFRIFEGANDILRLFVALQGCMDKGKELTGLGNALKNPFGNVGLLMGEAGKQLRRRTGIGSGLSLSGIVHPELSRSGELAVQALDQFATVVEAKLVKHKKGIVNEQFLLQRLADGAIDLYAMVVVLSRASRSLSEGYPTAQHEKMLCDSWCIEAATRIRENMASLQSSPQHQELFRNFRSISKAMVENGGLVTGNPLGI
UniProt P49962: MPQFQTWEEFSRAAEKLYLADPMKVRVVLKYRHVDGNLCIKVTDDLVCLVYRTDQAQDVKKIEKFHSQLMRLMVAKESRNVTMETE
UniProt P29595, whole entry: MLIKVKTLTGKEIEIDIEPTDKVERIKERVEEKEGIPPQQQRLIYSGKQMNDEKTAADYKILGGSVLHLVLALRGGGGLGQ
UniProt P50285: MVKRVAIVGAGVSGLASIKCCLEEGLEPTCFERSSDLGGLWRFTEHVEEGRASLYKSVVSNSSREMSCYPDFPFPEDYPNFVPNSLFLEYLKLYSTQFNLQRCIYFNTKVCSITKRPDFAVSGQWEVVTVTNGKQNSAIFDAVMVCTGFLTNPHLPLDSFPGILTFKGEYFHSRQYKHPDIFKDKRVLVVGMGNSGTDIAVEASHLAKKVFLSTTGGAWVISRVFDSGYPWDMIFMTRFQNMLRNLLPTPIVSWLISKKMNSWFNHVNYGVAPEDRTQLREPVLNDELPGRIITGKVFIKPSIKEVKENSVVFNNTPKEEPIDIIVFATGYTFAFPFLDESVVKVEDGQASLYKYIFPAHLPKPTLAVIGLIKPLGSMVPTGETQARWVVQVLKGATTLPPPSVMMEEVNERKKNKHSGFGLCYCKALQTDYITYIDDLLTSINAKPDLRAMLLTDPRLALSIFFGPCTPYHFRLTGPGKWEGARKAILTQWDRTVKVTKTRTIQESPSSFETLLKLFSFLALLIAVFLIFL
UniProt P36993: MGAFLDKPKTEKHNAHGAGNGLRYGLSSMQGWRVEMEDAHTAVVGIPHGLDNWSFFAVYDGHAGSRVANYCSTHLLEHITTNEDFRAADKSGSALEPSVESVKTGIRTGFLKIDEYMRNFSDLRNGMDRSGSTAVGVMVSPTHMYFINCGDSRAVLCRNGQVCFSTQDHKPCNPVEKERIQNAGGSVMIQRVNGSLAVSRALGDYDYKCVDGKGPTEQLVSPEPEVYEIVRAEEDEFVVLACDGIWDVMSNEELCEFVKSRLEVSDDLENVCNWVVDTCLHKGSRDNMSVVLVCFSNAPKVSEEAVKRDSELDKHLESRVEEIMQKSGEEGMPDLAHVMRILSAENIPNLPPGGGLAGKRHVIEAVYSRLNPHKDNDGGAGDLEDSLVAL
UniProt P35700: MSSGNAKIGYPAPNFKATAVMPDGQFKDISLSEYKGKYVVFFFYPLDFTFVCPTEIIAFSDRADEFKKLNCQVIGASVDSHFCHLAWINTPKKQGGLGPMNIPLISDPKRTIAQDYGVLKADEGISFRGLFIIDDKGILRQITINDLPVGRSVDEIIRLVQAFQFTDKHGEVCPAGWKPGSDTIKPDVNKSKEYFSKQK

Target	log2 fold change of pooled soluble protein
UniProt P29341	0.0106
UniProt P30115	-0.227
P48024;Q9CXU9	0.051
UniProt P31532	-0.118
UniProt P56375	0.16
P31809;Q925P2	0.0626
UniProt P52503	0.218
UniProt P46664	-0.139
UniProt P47963	-0.124
UniProt P55937	-0.014
UniProt P56391	-0.042
UniProt P55284	-0.0324
UniProt P43276	-0.00857
UniProt P30999	-0.00426
UniProt P46935	-0.0817
UniProt P51660	-0.0367
UniProt P51658	0.0814
UniProt P48758	-0.0482
UniProt P40936	0.0994

Another view of part of the listing above:

| Target | log2 fold change of pooled soluble protein |
| --- | --- |
| UniProt P56375 | 0.16 |
| P31809;Q925P2 | 0.0626 |
| UniProt P52503 | 0.218 |
| UniProt P46664 | -0.139 |
| UniProt P47963 | -0.124 |
| UniProt P55937 | -0.014 |
| UniProt P56391 | -0.042 |
| UniProt P55284 | -0.0324 |

Additional results.

Target	log2 fold change of pooled soluble protein
UniProt P51949	-0.0396
UniProt P30415	-0.28
UniProt P53657	0.105
UniProt P50544	0.0681
UniProt P46460	-0.0184
UniProt P49962	-0.123
UniProt P29595	0.0377
UniProt P42232	-0.244
UniProt P50285	0.102
UniProt P42208	-0.143
UniProt P35710	0.204
UniProt P35292	-0.0456
UniProt P36993	-0.0759
UniProt P46471	-0.0385
UniProt P46938	-0.0828
UniProt P47878	-0.271
UniProt P35700	-0.081
UniProt P35278	-0.0559
